From PMC11633528 come the findings set out here.

The chains behind the UniProt entries cited, without tags or fusion partners.
UniProt Q15717: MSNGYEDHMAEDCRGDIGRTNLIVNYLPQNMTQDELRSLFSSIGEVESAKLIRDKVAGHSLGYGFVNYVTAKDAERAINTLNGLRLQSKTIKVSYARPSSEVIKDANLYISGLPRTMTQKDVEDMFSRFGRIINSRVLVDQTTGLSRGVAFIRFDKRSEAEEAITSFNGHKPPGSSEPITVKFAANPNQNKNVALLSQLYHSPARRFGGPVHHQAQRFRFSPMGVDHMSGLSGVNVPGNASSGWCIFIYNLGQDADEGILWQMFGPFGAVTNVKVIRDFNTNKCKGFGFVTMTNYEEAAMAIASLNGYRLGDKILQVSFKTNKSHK
UniProt P67809: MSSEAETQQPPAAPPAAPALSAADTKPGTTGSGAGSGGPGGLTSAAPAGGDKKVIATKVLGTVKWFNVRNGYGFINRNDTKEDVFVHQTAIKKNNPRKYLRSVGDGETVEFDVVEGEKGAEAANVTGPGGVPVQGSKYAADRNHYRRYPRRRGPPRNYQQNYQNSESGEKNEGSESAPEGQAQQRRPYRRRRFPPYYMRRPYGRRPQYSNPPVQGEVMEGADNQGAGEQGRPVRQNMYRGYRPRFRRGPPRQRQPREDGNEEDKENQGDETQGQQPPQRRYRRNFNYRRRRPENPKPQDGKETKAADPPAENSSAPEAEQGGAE

For the assay, the target named is T1, HCP5‐132aa‐Flag (microprotein encoded by ORF15 of lncRNA HCP5), stably expressed in GC cells (human) (UniProt Q6MZN7).
T1 sequence: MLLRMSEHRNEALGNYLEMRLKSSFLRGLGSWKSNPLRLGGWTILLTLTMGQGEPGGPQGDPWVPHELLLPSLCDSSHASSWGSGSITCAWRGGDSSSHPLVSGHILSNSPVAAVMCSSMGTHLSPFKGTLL
Nature of the assay: affinity purification with mass spectrometry; anti‐Flag immunoprecipitation from GC cells with stable HCP5‐132aa‐Flag (control EGFP‐Flag), SDS‐PAGE, silver staining, LC‐MS/MS.

These are yes or no findings as the source states them, for the method shown. Binding seen in cells or lysates may run through a third protein. These calls come from enrichment with a bait or labelling near it, and not all partners need be listed. Sequences can lack the tags named with a protein.

In the case of “ELAVL1, endogenous in GC cells (from UniProt Q15717 1-326)”, the binding result was “binds”. Under “Y‐box binding protein 1 (YBX1), endogenous in GC cells (from UniProt P67809 1-324)” stands “binds”.
